Experimental data published in patent publication US6416733B1, “Radiopharmaceuticals for imaging infection and inflammation” (Bristol-Myers Squibb Pharma Company, priority 1996, dated 2002).
Some results were stated once for a whole list of compounds, not compound by compound. For at least one compound, name, drawing or mass did not settle the structure.

The chains behind the UniProt entries cited, without tags or fusion partners. Where a name states a change or a piece, a line headed by the entry shows the natural chain unless it says otherwise.
UniProt Q15722: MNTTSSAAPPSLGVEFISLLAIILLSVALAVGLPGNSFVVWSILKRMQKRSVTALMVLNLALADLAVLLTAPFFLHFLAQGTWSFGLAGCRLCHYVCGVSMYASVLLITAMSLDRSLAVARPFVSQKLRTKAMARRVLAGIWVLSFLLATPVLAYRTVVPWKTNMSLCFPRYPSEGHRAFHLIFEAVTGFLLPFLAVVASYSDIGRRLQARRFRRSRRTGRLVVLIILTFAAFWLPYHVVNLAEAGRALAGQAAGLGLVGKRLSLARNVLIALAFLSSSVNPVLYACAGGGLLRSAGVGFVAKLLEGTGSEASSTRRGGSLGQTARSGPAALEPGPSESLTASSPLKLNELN

Target: T1, PMN LTB4 receptor (Homo sapiens, UniProt Q15722)
T1 construct: endogenous in cells; host or cells: neutrophils (PMN) isolated from heparinized blood by ficoll gradient and dextran sedimentation
Test: LTB4 Human Neutrophil (PMN) Binding Assay
Settings: competition with [3H]LTB4 (1 nM), 10 min at 4° C.
Description: LTB4 Human Neutrophil (PMN) Binding Assay
LTB4 for the PMN LTB4 receptor.

| Molecule | found to be active in the LTB4 human neutrophil (PMN) binding assay |
| --- | --- |
| C=CCc1c(OCCCCC(C)(C)C(=O)NC(NC(=O)c2ccc(NN=Cc3ccccc3S(=O)(=O)O)nc2)C(=O)O)ccc2c1CCCC2=O (stereo not drawn) [Example 81] | active |
| 2-(2-Aza-2-((5-(N-(5-(4-(5-(4,6-diphenyl(2-pyridyloxy))-1,1-dimethylpentyl)(1,2,3,5-tetraazolyl))pentanoylamino)-1-(6-deoxy-β-cyclodextryl)carbamoyl)pentyl)carbamoyl)(2-pyridyl))amino)vinyl)benzenesulfonic Acid [Example 28] | active |
| CCc1cc(-c2ccn[nH]2)c(O)cc1OCCCCC(C)(C)CNC(=O)c1ccc(N/N=C/c2ccccc2S(=O)(=O)O)nc1 [Example 13, 4-ethyl-2-(5-pyrazolyl)-[5-[5,5-dimethyl-6-[[6-[[[(2-sulfonylphenyl)methylene]hydrazino]-3-pyridinyl]carbonyl]amino]hexyl]oxy]phenol] | active |
